{"source": "the supplement of paper PMC8728848", "test_in_all_cases": "glycan array binding signal (z-score within array); higher = stronger binding", "settings_in_all_cases": "glycan notation: IUPAC condensed, linker removed", "key": {"Fuc(a1-2)Gal": {"molecular_target": "Fuc(a1-2)Gal", "outline": "(§1)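 Arrays were curated from the Consortium for Functional Glycomics database, 3228 in total, and kept only where the protein sequence was available. Binding is expressed as a within-array Z-score. This score was averaged across arrays of the same protein sequence at different concentrations or buffers and across linkers, and negative values can be read as non-binding.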"}, "Fuc(a1-2)Gal(b1-3)GalNAc": {"molecular_target": "Fuc(a1-2)Gal(b1-3)GalNAc", "outline": "as §1"}, "[1]": {"molecular_target": "Fuc(a1-2)Gal(b1-3)GalNAc(a1-3)[Fuc(a1-2)]Gal(b1-4)Glc", "outline": "as §1"}, "[2]": {"molecular_target": "Fuc(a1-2)Gal(b1-3)GalNAc(a1-3)[Fuc(a1-2)]Gal(b1-4)GlcNAc", "outline": "as §1"}, "[3]": {"molecular_target": "Fuc(a1-2)Gal(b1-3)GalNAc(b1-3)Gal", "outline": "as §1"}, "[4]": {"molecular_target": "Fuc(a1-2)Gal(b1-3)GalNAc(b1-3)Gal(a1-4)Gal(b1-4)Glc", "outline": "as §1"}, "[5]": {"molecular_target": "Fuc(a1-2)Gal(b1-3)GalNAc(b1-4)[Neu5Ac(a2-3)]Gal(b1-4)Glc", "outline": "as §1"}, "Fuc(a1-2)Gal(b1-3)GlcNAc": {"molecular_target": "Fuc(a1-2)Gal(b1-3)GlcNAc", "outline": "as §1"}, "[6]": {"molecular_target": "Fuc(a1-2)Gal(b1-3)GlcNAc(b1-2)Man(a1-3)[Fuc(a1-2)Gal(b1-3)GlcNAc(b1-2)Man(a1-6)]Man(b1-4)GlcNAc(b1-4)GlcNAc", "outline": "as §1"}, "[7]": {"molecular_target": "Fuc(a1-2)Gal(b1-3)GlcNAc(b1-2)Man(a1-3)[Fuc(a1-2)Gal(b1-3)GlcNAc(b1-2)Man(a1-6)]Man(b1-4)GlcNAc(b1-4)[Fuc(a1-6)]GlcNAc", "outline": "as §1"}, "[8]": {"molecular_target": "Fuc(a1-2)Gal(b1-3)GlcNAc(b1-3)Gal(b1-4)Glc", "outline": "as §1"}, "[9]": {"molecular_target": "Fuc(a1-2)Gal(b1-3)GlcNAc(b1-3)GalNAc", "outline": "as §1"}, "[10]": {"molecular_target": "Fuc(a1-2)Gal(b1-3)GlcNAc(b1-3)[Fuc(a1-2)Gal(b1-3)GlcNAc(b1-6)]GalNAc", "outline": "as §1"}, "[11]": {"molecular_target": "Fuc(a1-2)Gal(b1-3)GlcNAc(b1-3)[Fuc(a1-3)[Gal(b1-4)]GlcNAc(b1-6)]Gal(b1-4)Glc", "outline": "as §1"}, "[12]": {"molecular_target": "Fuc(a1-2)Gal(b1-3)GlcNAc(b1-3)[Gal(b1-4)GlcNAc(b1-6)]Gal(b1-4)Glc", "outline": "as §1"}, "[13]": {"molecular_target": "Fuc(a1-2)Gal(b1-3)GlcNAc(b1-3)[Neu5Ac(a2-6)Gal(b1-4)GlcNAc(b1-6)]Gal(b1-4)Glc", "outline": "as §1"}, "[14]": {"molecular_target": "Fuc(a1-2)Gal(b1-3)GlcNAc6S", "outline": "as §1"}, "[15]": {"molecular_target": "Fuc(a1-2)Gal(b1-3)[Fuc(a1-4)]GlcNAc", "outline": "as §1"}, "[16]": {"molecular_target": "Fuc(a1-2)Gal(b1-3)[Fuc(a1-4)]GlcNAc(b1-2)Man(a1-3)[Fuc(a1-2)Gal(b1-3)[Fuc(a1-4)]GlcNAc(b1-2)Man(a1-3)]Man(b1-4)GlcNAc(b1-4)GlcNAc", "outline": "as §1"}, "[17]": {"molecular_target": "Fuc(a1-2)Gal(b1-3)[Fuc(a1-4)]GlcNAc(b1-2)Man(a1-3)[Fuc(a1-2)Gal(b1-3)[Fuc(a1-4)]GlcNAc(b1-2)Man(a1-6)]Man(b1-4)GlcNAc(b1-4)GlcNAc", "outline": "as §1"}, "[18]": {"molecular_target": "Fuc(a1-2)Gal(b1-3)[Fuc(a1-4)]GlcNAc(b1-2)Man(a1-3)[Fuc(a1-2)Gal(b1-3)[Fuc(a1-4)]GlcNAc(b1-2)Man(a1-6)]Man(b1-4)GlcNAc(b1-4)[Fuc(a1-6)]GlcNAc(b1-4)[Fuc(a1-6)]GlcNAc", "outline": "as §1"}, "[19]": {"molecular_target": "Fuc(a1-2)Gal(b1-3)[Fuc(a1-4)]GlcNAc(b1-3)[Fuc(a1-3)[Gal(b1-4)]GlcNAc(b1-6)]Gal(b1-4)Glc", "outline": "as §1"}, "[20]": {"molecular_target": "Fuc(a1-2)Gal(b1-3)[Fuc(a1-4)]GlcNAc(b1-3)[Gal(b1-4)GlcNAc(b1-6)]Gal(b1-4)Glc", "outline": "as §1"}, "[21]": {"molecular_target": "Fuc(a1-2)Gal(b1-4)Fuc(a1-3)]GlcNAc(b1-2)Man(a1-3)[Fuc(a1-2)Gal(b1-4)[Fuc(a1-3)]GlcNAc(b1-2)Man(a1-6)]Man(b1-4)GlcNAc(b1-4)GlcNAc", "outline": "as §1"}, "Fuc(a1-2)Gal(b1-4)Glc": {"molecular_target": "Fuc(a1-2)Gal(b1-4)Glc", "outline": "as §1"}, "Fuc(a1-2)Gal(b1-4)Glc6S": {"molecular_target": "Fuc(a1-2)Gal(b1-4)Glc6S", "outline": "as §1"}, "Fuc(a1-2)Gal(b1-4)GlcNAc": {"molecular_target": "Fuc(a1-2)Gal(b1-4)GlcNAc", "outline": "as §1"}, "[22]": {"molecular_target": "Fuc(a1-2)Gal(b1-4)GlcNAc(b1-2)Man", "outline": "as §1"}, "[23]": {"molecular_target": "Fuc(a1-2)Gal(b1-4)GlcNAc(b1-2)Man(a1-3)[Fuc(a1-2)Gal(b1-4)GlcNAc(b1-2)Man(a1-6)]Man(b1-4)GlcNAc(b1-4)GlcNAc", "outline": "as §1"}, "[24]": {"molecular_target": "Fuc(a1-2)Gal(b1-4)GlcNAc(b1-2)Man(a1-3)[Fuc(a1-2)Gal(b1-4)GlcNAc(b1-2)Man(a1-6)]Man(b1-4)GlcNAc(b1-4)[Fuc(a1-6)]GlcNAc", "outline": "as §1"}}, "note": "Some of the results follow.", "data": [{"binder": "MFG-E8 (Mus musculus), P21956 (protein) MQVSRVLAALCGMLLCASGLFAASGDFCDSSLCLNGGTCLTGQDNDIYCLCPEGFTGLVCNETERGPCSPNPCYNDAKCLVTLDTQRGDIFTEYICQCPVGYSGIHCETETNYYNLDGEYMFTTAVPNTAVPTPAPTPDLSNNLASRCSTQLGMEGGAIADSQISASSVYMGFMGLQRWGPELARLYRTGIVNAWTASNYDSKPWIQVNLLRKMRVSGVMTQGASRAGRAEYLKTFKVAYSLDGRKFEFIQDESGGDKEFLGNLDNNSLKVNMFNPTLEAQYIKLYPVSCHRGCTLRFELLGCELHGCSEPLGLKNNTIPDSQMSASSSYKTWNLRAFGWYPHLGRLDNQGKINAWTAQSNSAKEWLQVDLGTQRQVTGIITQGARDFGHIQYVASYKVAHSDDGVQWTVYEEQGSSKVFQGNLDNNSHKKNIFEKPFMARYVRVLPVSWHNRITLRLELLGC", "values": [{"measurement": "glycan array binding signal (z-score)", "setting": "Fuc(a1-2)Gal", "result": -0.805}, {"measurement": "glycan array binding signal (z-score)", "setting": "Fuc(a1-2)Gal(b1-3)GalNAc", "result": 0.362}, {"measurement": "glycan array binding signal (z-score)", "setting": "[1]", "result": -0.109}, {"measurement": "glycan array binding signal (z-score)", "setting": "[2]", "result": 0.179}, {"measurement": "glycan array binding signal (z-score)", "setting": "[3]", "result": 0.021}, {"measurement": "glycan array binding signal (z-score)", "setting": "[4]", "result": -0.515}, {"measurement": "glycan array binding signal (z-score)", "setting": "[5]", "result": 0.441}, {"measurement": "glycan array binding signal (z-score)", "setting": "Fuc(a1-2)Gal(b1-3)GlcNAc", "result": 0.358}, {"measurement": "glycan array binding signal (z-score)", "setting": "[6]", "result": -0.774}, {"measurement": "glycan array binding signal (z-score)", "setting": "[7]", "result": 0.684}, {"measurement": "glycan array binding signal (z-score)", "setting": "[8]", "result": 0.064}, {"measurement": "glycan array binding signal (z-score)", "setting": "[9]", "result": 0.006}, {"measurement": "glycan array binding signal (z-score)", "setting": "[10]", "result": 0.462}, {"measurement": "glycan array binding signal (z-score)", "setting": "[11]", "result": 1.04}, {"measurement": "glycan array binding signal (z-score)", "setting": "[12]", "result": -0.065}, {"measurement": "glycan array binding signal (z-score)", "setting": "[13]", "result": 0.247}, {"measurement": "glycan array binding signal (z-score)", "setting": "[14]", "result": 1.53}, {"measurement": "glycan array binding signal (z-score)", "setting": "[15]", "result": -0.356}, {"measurement": "glycan array binding signal (z-score)", "setting": "[16]", "result": 0.299}, {"measurement": "glycan array binding signal (z-score)", "setting": "[17]", "result": 2.2}, {"measurement": "glycan array binding signal (z-score)", "setting": "[18]", "result": 0.394}, {"measurement": "glycan array binding signal (z-score)", "setting": "[19]", "result": 0.24}, {"measurement": "glycan array binding signal (z-score)", "setting": "[20]", "result": -0.803}, {"measurement": "glycan array binding signal (z-score)", "setting": "[21]", "result": 0.316}, {"measurement": "glycan array binding signal (z-score)", "setting": "Fuc(a1-2)Gal(b1-4)Glc", "result": -0.349}, {"measurement": "glycan array binding signal (z-score)", "setting": "Fuc(a1-2)Gal(b1-4)Glc6S", "result": 0.08}, {"measurement": "glycan array binding signal (z-score)", "setting": "Fuc(a1-2)Gal(b1-4)GlcNAc", "result": -0.121}, {"measurement": "glycan array binding signal (z-score)", "setting": "[22]", "result": 0.441}, {"measurement": "glycan array binding signal (z-score)", "setting": "[23]", "result": -0.554}, {"measurement": "glycan array binding signal (z-score)", "setting": "[24]", "result": 0.261}]}]}
